The text below walks through data of patent publication US20240382511A1, “NICOTINAMIDE MONONUCLEOTIDE DERIVATIVES AND USE THEREOF FOR THE TREATMENT OF HEART FAILURE WITH PRESERVED EJECTION FRACTION” (NUVAMID SA, priority 2021, published 2024).

The subject of the series is free choice fed hamsters (diet-induced NASH hamster model of HFpEF). Kind of series: Body weight, food and water intake in diet-induced NASH hamster model of HFpEF. It counts as in vivo, hamster (Golden Syrian). To be noted: 5 weeks of treatment once a day per os (compound 001 600 mg/kg, vardenafil 10 mg/kg), vs vehicle, FIG. 6. The source says: Animals. Male hamsters (Golden Syrian), 4-week-old at receipt, were acclimated at least 5 days before the beginning of the study. Control animals were fed with a chow diet with normal tap water. For diet-induced NASH model, animals were fed with a free choice diet consisting of (a) a chow diet with normal water and (b) a high fat/cholesterol diet with 10% fructose enriched tap water. Food and water intake have been measured once a week. Dosage regimen and test groups. Animals were divided into 5 groups: [table] The study was conducted over 20 weeks. Treatments were administered from week 15 until the end of the experiment (duration 5 weeks), once a day, per os, at a rate of 10 ml/kg. Water was used as vehicle. Vardenafil was used as reference compound. Data analysis. All graphs represent means±standard error of mean (sem). Statistical analysis has been performed using GraphPad Prism 5 software. Single comparisons were made using Student's unpaired t-test or Mann Whitney in case of significant variance. Multiple comparisons have been carried out with two-way ANOVA followed by post-hoc Bonferroni test or one-way ANOVA followed by post-hoc Dunnett or Kruskall-Wallis test in case of significant variance. For all tests, p<0.05 was considered significant. During 20 weeks of diet including 5 weeks under treatment with vehicle, compound 001, vardenafil or both, body weight, food and water intake were recorded once a week. Blood was collected at week 14 and week 20 to measure plasma insulin, glucose and ALT/AST, and NT-pro BNP level was evaluated at week 20. Echocardiographic studies were assessed at week 14 and week 20. Finally, heart, liver and lungs were collected to be weighted and normalized to tibia length.

As to `NC(=O)c1ccc[n+]([C@@H]2O[C@H](COP(=O)([O-])O)[C@@H](O)[C@H]2O)c1` [compound 001, nicotinamide mononucleotide], the “fructose consumption (fructose-supplemented water)” value is listed as “significant reduction in fructose consumption”, the “high fat/cholesterol diet consumption” value is on record as “seemed to decrease high fat/cholesterol diet consumption” and the water consumption result is given as “increase in water consumption”.
